# Results: the supplement of paper PMC3334620
# In all, about 33,000 sequences were measured (“E-score (-0.5 to 0.5)”: median about -0.0034, highest 2% from about 0.25 on). The list shows a part of the results.
# Target: T1, Yap3 (UniProt P38749)
# T1 sequence: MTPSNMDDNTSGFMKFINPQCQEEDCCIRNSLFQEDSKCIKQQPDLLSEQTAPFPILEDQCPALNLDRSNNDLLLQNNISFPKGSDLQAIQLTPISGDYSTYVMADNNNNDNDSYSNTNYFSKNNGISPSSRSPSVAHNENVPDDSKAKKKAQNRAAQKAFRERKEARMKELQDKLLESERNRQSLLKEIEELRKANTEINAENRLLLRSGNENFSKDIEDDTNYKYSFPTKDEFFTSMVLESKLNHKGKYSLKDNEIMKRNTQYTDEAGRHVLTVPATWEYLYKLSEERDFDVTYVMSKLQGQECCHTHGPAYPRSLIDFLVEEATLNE
# Test: PBM E-score (8-mer binding enrichment) (E-score (-0.5 to 0.5)); higher = stronger / more preferred TF binding
# Conditions: protein concentration: 100 nM; construct: GST-full length
# Procedure, shortened: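 Using PURExpress in vitro transcription/translation, GST-tagged yeast transcription factors were made in full-length or DNA-binding-domain form. These were applied at about 100-200 nM to double-stranded universal all-10-mer Agilent arrays, and bound protein was detected with fluorescent anti-GST. Scans were normalised with masliner before the Universal PBM Analysis Suite assigned E-scores to ungapped eight-base words pooled with their reverse complements.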
row,Sequence,PBM E-score
1,CGCATGTC,-0.0845
2,CTGAGGCA,-0.0933
3,CAACTCAA,0.198
4,CGTAAAAG,0.0794
5,CGATGCGC,-0.0942
6,AACGATAT,0.269
7,ATACTATA,0.191
8,AAAATCCG,0.0654
9,GCGTCTGA,-0.1
10,AAAATCGA,0.168
11,ATAGCAAG,0.149
12,CACTAAGC,-0.0365
13,AGCTTGAT,-0.0351
14,GCGTCAAC,0.0498
15,ATGATGGG,-0.00808
16,ACGAGACG,-0.0604
17,GTTTGCCA,0.0636
18,AAACCCAT,0.216
19,AGTGCCGG,-0.153
20,AACCGTGT,0.0213
21,CGGGGACA,-0.153
22,GTTAGTCA,0.33
23,ACTGCACC,-0.042
24,CACGCAAG,0.169
25,TTACGGAA,0.266

row,Sequence,PBM E-score
1,CGATCTTA,0.0188
2,CGAAGAGC,-0.0308
3,ACGGTCCT,-0.225
4,CATTGAGC,-0.0237
5,TAGTCAAA,0.222
6,CTTAAGAC,-0.117
7,ATGCGCTA,-0.00231
8,CCGCGTAA,0.0463
9,CGCGGCAG,0.029
10,CCCACGTC,-0.122
11,CTTGCACA,0.0995
12,GACAAAGC,0.0522
13,AATGAGGG,-0.0674
14,GACCCCTA,-0.229
15,GATCGAGC,-0.0568
16,AGCCCGAC,-0.102
17,ACCTATCT,0.0909
18,ACTGTTTC,-0.0552
19,ATAAGCGC,0.105
20,ATGAGTCC,-0.079
21,AAATTTGG,0.0997
22,CAGTTCCG,-0.086
23,AGACCCCG,-0.0662
24,CTGCACTC,0.0431
25,GCCAGTCC,-0.343

# A second format for some results above:
row	Sequence	PBM E-score
16	AGCCCGAC	-0.102
17	ACCTATCT	0.0909
18	ACTGTTTC	-0.0552
19	ATAAGCGC	0.105
20	ATGAGTCC	-0.079
21	AAATTTGG	0.0997

# Additional entries.

row,Sequence,PBM E-score
1,AGAGCCAT,-0.0046
2,CGTCTAAG,-0.0196
3,AGCTGGTC,-0.158
4,AACCTATA,0.193
5,CTTGTCGA,-0.0298
6,ACTGTCCA,-0.128
7,CCAAGACG,-0.148
8,GGAGTAGA,0.0978
9,ACGCGTAT,0.196
10,AGCCTAAG,-0.245
11,TATCGATA,0.0263
12,ACCTGGAT,-0.167
13,CACACAGA,-0.101
14,GTTGTCTA,0.0881
15,ATCGACAG,-0.00949
16,CTCAGCGA,0.125
17,CCTCGACC,-0.128
18,AAGCGTGA,0.0553
19,CCGGATGA,-0.0374
20,AGCAAGCC,-0.219
21,CAAACGAA,0.0114
22,AGTGGTCA,-0.0325
23,ATGAGGTC,-0.0958
24,ACTCAAAG,-0.0186
25,AACAAACT,0.0897

row,Sequence,PBM E-score
1,CCACCCGG,-0.298
2,AGACAAAC,0.0172
3,CGTCGAAC,-0.194
4,AACAGGTA,0.162
5,AATAGGCC,-0.0862
6,CTAGTGGC,-0.107
7,CTACCGAG,-0.1
8,ACATGCAG,0.0576
9,CTTTAATA,0.285
10,CAGGATTC,-0.0296
11,GCACCTTA,-0.00406
12,CAGCAGGC,-0.205
13,CGGACTAC,-0.048
14,ACTTAGAG,-0.107
15,AGCGCAGG,-0.185
16,ACAGTCTC,-0.178
17,CGATCACG,0.176
18,CGGCCACG,-0.138
19,CGCGAAGC,0.0371
20,GAGGGTAC,-0.139
21,AGGTGATC,0.0941
22,ACGTCCAT,-0.0437
23,ATCCTACC,-0.068
24,CTCGCAGA,-0.0139
25,AGCCGGTG,-0.152

# Reprinted at random: seven records from the list.
row,Sequence,PBM E-score
25,TTACGGAA,0.266
1,CGATCTTA,0.0188
10,AAAATCGA,0.168
1,AGAGCCAT,-0.0046
22,GTTAGTCA,0.33
25,AGCCGGTG,-0.152
11,GCACCTTA,-0.00406

# Remaining list, next part:

row,Sequence,PBM E-score
1,ATTGAAAC,0.155
2,TCCGCTCA,-0.0153
3,CACTCGTA,-0.0977
4,GGGTTACA,-0.0039
5,ACGTATTA,0.282
6,GGAATTGA,0.119
7,ACTAATGA,0.264
8,CCGGATCC,0.018
9,CCCAGTCA,-0.279
10,AAGCATGT,0.111
11,GATAAAGC,0.142
12,CAGCGGTC,-0.214
13,ACTTCCGG,0.0969
14,AAGGGAGC,-0.27
15,ACCTGAAA,-0.0139
16,AGTACATG,0.164
17,GTAGTCGA,0.111
18,ACTATGTG,-0.0195
19,ATTACTGG,-0.0154
20,GGGTGTAC,-0.0774
21,ACCTGACA,0.0922
22,ATTTTTAG,-0.0279
23,ACTCACGA,-0.133
24,CACAATCC,0.00037
25,AAGGAGCA,-0.0902

row,Sequence,PBM E-score
1,CTCGACAG,-0.152
2,CTGGTGTC,-0.0507
3,GACACTGC,-0.0909
4,CCATAACC,-0.0883
5,TCGTCGCA,-0.0153
6,AACGAACT,-0.0164
7,CGGAAAGA,0.147
8,GAGCTGCC,-0.194
9,CCAAACTA,0.0758
10,TATTACAA,0.209
11,ATGCGGTA,-0.0315
12,ACAACGAG,0.056
13,CCGTCTGC,-0.0489
14,AGCCAAAT,-0.0362
15,AAATGTCG,0.0526
16,AATCTCAT,0.222
17,CTAGGGGA,-0.239
18,CAGTCACA,0.0306
19,CCTACGTA,-0.0652
20,AAATGGCG,0.0528
21,CTGGATCA,-0.0291
22,CGAATTCA,0.0767
23,AGCCAGGC,0.00569
24,TAGAACTA,-0.11
25,CGGCAATA,0.216

row,Sequence,PBM E-score
1,CTGGGGGC,-0.381
2,ACGATAGT,0.132
3,ATCGGTTG,0.0834
4,ATGAGGCG,-0.141
5,AGCAACGG,0.183
6,TGATCACA,0.054
7,GGAGTTCA,-0.0205
8,AGCAATGA,0.0602
9,AATTAACC,0.124
10,CTGGAAGC,-0.23
11,CATAGAGC,-0.0525
12,AATGCACC,-0.059
13,AAAGCTAT,-0.0474
14,ACCAGTAA,0.131
15,ACATTACA,0.131
16,AGCAACGC,-0.0123
17,AAAGGCCA,-0.0877
18,ATAAGAAT,0.207
19,ATACGACA,0.0725
20,GATCCATA,0.00716
21,ACTGACTC,0.00686
22,CCTCTTGC,-0.222
